The other results are listed elsewhere or left out.
Compound: Cc1cc(ccc1-c1ccccc1)C(=O)N1CCCN(CC1)C(=O)CCl [compound 10]
Experiment: probe-labelled cysteine peptide fold change vs DMSO (competition) (log2 fold change); higher = less target engagement (more negative = stronger competition)
Conditions: THP-1, incubation time: 4 h
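Note: competitive profiling in live THP-1 cells: cysteine peptides tagged with an iodoacetamide desthiobiotin (IA-DTB) probe, intensity after compound treatment relative to DMSO-treated cells.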

Chains of the proteins cited; added tags and fusions are not shown. Lines headed by an entry give the natural chain unless they say otherwise; changes in a name come on top.
UniProt Q96JN0: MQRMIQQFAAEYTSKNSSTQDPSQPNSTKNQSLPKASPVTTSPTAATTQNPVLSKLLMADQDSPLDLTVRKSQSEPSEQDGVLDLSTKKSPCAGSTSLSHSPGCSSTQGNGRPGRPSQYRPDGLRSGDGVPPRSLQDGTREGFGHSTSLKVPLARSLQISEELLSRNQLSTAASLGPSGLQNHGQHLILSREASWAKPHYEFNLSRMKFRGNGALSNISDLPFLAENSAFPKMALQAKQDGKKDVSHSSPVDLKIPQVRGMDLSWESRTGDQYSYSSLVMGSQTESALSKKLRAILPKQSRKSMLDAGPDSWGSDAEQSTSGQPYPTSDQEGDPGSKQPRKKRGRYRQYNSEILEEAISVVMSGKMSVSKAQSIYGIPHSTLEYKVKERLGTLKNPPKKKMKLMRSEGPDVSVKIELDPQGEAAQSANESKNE
UniProt Q4FZB7: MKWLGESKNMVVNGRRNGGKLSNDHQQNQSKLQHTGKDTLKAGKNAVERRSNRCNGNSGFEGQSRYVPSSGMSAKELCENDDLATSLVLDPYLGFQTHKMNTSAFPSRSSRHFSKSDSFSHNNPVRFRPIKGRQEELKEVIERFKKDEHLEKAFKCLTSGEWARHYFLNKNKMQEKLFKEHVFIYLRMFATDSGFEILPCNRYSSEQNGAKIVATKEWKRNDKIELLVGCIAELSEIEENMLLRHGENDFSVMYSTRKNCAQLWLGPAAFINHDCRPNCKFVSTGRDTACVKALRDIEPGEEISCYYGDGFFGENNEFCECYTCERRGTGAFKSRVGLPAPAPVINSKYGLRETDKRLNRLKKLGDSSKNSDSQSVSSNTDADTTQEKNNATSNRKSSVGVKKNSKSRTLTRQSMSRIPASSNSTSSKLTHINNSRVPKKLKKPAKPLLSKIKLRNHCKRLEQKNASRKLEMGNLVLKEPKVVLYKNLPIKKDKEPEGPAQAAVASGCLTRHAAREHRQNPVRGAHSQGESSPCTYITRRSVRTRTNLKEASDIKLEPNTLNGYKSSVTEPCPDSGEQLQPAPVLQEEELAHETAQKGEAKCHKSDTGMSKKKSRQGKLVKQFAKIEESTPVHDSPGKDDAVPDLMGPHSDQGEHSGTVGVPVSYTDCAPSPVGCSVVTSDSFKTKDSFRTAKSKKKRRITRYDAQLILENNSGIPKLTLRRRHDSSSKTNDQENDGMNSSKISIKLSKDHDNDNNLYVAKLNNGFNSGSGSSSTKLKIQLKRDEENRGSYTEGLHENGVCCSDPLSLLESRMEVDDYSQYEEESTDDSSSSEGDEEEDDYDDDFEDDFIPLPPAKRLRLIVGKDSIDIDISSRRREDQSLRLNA
UniProt Q86UP2: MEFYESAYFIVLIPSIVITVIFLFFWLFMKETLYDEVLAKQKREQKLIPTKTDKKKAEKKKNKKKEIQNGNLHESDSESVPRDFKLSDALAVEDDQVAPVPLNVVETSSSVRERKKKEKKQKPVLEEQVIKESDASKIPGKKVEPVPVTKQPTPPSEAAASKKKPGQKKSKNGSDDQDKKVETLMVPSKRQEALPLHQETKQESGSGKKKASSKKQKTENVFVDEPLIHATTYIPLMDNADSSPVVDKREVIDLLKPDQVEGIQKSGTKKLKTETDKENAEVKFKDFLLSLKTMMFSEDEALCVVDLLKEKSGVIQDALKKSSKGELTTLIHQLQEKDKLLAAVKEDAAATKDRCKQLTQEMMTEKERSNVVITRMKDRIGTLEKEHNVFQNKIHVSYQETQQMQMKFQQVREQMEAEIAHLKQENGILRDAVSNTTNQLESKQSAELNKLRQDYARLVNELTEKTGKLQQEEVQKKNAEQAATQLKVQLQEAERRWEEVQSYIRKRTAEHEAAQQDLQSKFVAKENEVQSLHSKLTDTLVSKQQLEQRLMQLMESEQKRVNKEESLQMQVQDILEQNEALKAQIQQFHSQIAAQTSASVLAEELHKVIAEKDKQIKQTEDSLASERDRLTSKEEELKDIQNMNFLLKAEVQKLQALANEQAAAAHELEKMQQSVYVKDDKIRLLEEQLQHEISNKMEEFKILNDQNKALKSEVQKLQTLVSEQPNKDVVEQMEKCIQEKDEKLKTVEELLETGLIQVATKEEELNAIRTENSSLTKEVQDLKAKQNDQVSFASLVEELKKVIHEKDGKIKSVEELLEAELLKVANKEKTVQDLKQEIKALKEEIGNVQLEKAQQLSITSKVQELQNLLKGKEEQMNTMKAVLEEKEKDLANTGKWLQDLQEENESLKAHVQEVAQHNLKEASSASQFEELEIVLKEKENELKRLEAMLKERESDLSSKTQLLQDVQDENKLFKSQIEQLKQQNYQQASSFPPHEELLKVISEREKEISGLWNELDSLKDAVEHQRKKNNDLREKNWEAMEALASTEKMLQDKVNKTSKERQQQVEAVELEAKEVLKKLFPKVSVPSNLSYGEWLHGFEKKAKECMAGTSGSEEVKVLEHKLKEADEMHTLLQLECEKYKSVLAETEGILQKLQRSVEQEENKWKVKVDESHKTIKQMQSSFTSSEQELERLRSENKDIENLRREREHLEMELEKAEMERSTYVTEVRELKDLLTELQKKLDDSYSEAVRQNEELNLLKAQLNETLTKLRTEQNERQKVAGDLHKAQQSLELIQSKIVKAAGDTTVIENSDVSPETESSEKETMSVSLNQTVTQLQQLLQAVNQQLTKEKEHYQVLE
UniProt Q14974, whole entry, looked up: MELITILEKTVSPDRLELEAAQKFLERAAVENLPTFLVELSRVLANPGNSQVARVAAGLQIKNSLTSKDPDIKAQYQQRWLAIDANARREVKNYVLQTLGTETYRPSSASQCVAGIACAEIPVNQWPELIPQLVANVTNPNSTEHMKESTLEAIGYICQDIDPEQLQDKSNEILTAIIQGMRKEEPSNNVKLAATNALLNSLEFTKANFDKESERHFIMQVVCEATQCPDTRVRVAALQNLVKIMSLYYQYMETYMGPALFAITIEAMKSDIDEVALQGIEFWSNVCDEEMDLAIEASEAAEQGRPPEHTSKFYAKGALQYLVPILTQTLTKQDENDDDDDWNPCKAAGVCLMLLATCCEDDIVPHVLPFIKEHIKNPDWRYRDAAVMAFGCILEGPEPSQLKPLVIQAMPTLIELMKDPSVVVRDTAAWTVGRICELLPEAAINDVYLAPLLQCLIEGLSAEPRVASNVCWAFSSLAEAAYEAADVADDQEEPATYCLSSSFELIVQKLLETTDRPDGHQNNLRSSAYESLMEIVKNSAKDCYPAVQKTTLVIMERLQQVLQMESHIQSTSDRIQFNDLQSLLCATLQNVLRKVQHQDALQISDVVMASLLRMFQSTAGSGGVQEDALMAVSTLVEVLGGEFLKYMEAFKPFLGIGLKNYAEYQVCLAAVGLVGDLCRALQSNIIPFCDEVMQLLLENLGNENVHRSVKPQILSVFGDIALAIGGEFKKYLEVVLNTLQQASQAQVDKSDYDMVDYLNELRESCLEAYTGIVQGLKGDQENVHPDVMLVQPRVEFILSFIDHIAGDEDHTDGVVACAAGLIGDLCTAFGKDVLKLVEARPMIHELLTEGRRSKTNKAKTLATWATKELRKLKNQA
UniProt O00629, whole entry, looked up: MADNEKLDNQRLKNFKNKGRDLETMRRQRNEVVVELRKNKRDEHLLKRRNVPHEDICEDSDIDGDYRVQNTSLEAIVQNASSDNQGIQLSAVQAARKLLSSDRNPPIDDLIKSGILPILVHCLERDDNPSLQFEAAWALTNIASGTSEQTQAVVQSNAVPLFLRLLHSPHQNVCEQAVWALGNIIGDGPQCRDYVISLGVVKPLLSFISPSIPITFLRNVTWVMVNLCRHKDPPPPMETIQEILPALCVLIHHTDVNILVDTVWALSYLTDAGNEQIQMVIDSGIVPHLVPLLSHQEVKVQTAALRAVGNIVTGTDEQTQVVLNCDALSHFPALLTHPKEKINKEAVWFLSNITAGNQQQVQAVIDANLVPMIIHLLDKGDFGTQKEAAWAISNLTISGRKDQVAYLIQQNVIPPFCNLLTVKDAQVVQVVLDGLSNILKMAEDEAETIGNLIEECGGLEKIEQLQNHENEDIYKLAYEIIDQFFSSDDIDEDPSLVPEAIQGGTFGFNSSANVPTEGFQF
UniProt Q9Y4W2: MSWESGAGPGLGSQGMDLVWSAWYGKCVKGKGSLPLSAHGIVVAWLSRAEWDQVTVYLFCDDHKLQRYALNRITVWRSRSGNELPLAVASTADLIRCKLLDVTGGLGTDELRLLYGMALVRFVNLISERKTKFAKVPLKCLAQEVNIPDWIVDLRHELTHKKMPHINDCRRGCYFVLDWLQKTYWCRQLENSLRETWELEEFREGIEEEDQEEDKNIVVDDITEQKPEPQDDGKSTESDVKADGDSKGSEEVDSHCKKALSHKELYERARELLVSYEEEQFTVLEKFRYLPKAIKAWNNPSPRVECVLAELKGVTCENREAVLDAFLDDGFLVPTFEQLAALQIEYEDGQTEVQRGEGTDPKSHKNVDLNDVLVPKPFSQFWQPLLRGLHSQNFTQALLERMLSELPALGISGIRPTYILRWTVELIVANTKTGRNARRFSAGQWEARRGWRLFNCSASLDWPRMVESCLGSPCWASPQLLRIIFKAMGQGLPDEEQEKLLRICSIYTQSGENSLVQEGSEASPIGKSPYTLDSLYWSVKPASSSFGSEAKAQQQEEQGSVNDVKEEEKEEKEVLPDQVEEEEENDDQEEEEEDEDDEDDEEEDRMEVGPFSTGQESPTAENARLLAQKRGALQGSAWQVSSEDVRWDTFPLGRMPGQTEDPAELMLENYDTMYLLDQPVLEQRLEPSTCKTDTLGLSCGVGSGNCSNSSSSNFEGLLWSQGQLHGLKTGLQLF
UniProt Q53H82: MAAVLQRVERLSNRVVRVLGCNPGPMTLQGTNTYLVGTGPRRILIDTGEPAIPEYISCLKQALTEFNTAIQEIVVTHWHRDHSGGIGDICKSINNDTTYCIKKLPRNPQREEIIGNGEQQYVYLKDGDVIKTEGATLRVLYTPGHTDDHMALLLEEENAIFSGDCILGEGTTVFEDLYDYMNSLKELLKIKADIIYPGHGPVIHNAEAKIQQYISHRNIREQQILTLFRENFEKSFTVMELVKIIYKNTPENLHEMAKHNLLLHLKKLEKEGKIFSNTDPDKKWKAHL
UniProt Q53GT1: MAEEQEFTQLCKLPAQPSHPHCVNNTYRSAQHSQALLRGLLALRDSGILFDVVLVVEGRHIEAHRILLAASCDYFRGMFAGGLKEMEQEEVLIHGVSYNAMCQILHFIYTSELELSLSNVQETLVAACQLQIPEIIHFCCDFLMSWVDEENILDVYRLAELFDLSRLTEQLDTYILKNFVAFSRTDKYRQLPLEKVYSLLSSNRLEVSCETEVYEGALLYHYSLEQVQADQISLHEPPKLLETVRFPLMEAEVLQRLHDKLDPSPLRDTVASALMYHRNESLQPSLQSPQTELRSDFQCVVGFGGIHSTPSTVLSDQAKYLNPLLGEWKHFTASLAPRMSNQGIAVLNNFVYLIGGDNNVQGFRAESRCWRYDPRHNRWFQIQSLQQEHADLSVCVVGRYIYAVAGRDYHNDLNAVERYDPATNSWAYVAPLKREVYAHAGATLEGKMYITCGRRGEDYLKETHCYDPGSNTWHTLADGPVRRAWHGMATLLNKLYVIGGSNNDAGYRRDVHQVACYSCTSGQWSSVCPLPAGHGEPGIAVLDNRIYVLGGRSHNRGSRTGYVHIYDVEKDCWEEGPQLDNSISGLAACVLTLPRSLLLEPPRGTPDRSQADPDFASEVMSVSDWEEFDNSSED
UniProt Q99661: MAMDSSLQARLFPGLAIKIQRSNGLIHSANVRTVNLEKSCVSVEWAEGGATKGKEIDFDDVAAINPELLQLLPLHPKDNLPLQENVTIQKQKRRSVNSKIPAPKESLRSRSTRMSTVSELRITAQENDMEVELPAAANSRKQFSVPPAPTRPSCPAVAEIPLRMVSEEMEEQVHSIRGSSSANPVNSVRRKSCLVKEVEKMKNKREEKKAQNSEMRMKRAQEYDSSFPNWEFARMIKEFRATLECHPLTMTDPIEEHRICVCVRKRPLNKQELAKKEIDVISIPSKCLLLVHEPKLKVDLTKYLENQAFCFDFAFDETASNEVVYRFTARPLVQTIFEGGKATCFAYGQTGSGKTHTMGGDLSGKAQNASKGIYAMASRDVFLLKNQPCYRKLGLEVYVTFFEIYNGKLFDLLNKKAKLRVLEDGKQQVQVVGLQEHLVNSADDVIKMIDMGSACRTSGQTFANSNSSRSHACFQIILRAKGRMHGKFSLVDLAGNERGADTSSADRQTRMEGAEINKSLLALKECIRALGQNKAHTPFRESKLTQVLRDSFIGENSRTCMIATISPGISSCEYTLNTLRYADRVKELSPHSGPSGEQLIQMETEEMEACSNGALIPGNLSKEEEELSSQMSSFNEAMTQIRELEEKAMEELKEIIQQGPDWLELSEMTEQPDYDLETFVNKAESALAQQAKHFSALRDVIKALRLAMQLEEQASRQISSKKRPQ

Target | probe-labelled cysteine peptide fold change (10 µM) | probe-labelled cysteine peptide fold change (50 µM)
KRIT1_O00522_297_SACEGDSELLSR (UniProt O00522) | -0.207 | -0.179
LCOR_Q96JN0-3_531_ASCSALASEAVFTPK (UniProt Q96JN0) | -0.217 | -0.443
LDHD_Q86WU2_63_CEPPDAVVWPQNVEQVSR (UniProt Q86WU2) | -0.334 | 0.36
LARP1_Q6PKG0_1054_RCPSQSSSR (UniProt Q6PKG0) | 0.0701 | -0.207
KMT5B_Q4FZB7_54_CNGNSGFEGQSR (UniProt Q4FZB7) | -0.424 | -0.621
KIF2A_O00139_406_CVEDVLK (UniProt O00139) | 0.214 | -0.0792
KTN1_Q86UP2_303_TMMFSEDEALCVVDLLK (UniProt Q86UP2) | -0.0544 | 0.119
KPNB1_Q14974_667_NYAEYQVCLAAVGLVGDLCR (UniProt Q14974) | 0.365 | -0.0434
KPNA4_O00629_417_KDQVAYLIQQNVIPPFCNLLTVK (UniProt O00629) | 0.359 | -0.054
LAS1L_Q9Y4W2_456_LFNCSASLDWPR (UniProt Q9Y4W2) | 0.14 | -0.529
LACTB2_Q53H82_21_VLGCNPGPMTLQGTNTYLVGTGPR (UniProt Q53H82) | -0.09 | -0.141
KLHL22_Q53GT1_11_AEEQEFTQLCK (UniProt Q53GT1) | -0.27 | -0.131
LDHA_P00338_293_DDVFLSVPCILGQNGISDLVK (UniProt P00338) | 0.129 | 0.529
KIF2C_Q99661_40_SCVSVEWAEGGATK (UniProt Q99661) | 0.219 | 0.0615

Individual results from the entries so far.
probe-labelled cysteine peptide fold change (10 µM), KIF2C_Q99661_40_SCVSVEWAEGGATK (UniProt Q99661) reads 0.219
probe-labelled cysteine peptide fold change (10 µM), LDHA_P00338_293_DDVFLSVPCILGQNGISDLVK (UniProt P00338) reads 0.129

Source: the supplement of paper PMC12067093, “Discovery and optimisation of a covalent ligand for TRIM25 and its application to targeted protein ubiquitination” (Chemical Science, 2025)
